According to PMC12077264:
Numbering of substitutions follows the chain as printed. Results are given in words; binding and its absence hold for the method and conditions named. In cells and extracts the contact can be indirect. A result given as binding can be weak or reduced; the word gives no strength. Where a sequence is shown, tags or fusion partners need not be part of it.

The chains behind the UniProt entries cited, without tags or fusion partners. Where a name states a change or a piece, a line headed by the entry shows the natural chain unless it says otherwise.
UniProt P69490: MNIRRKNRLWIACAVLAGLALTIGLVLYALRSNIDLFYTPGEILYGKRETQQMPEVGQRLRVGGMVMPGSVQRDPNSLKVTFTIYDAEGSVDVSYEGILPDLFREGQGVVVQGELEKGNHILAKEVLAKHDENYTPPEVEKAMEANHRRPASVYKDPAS

Tests used:
Assay in all cases: pull-down; GST affinity purification via the N-terminal GST tag on CcmC of co-expressed GST:CcmCDE(H130A) or GST:CcmC(D:flag)E(H130A) from E. coli; 5 ug affinity purified protein on SDS-PAGE, Coomassie stain and α-GST, α-CcmE, α-FLAG immunoblots
[1] = target: T1, GST:CcmC(L227C), in GST:CcmCDE(H130A) (E. coli) (UniProt P0ABM1)
T1 sequence: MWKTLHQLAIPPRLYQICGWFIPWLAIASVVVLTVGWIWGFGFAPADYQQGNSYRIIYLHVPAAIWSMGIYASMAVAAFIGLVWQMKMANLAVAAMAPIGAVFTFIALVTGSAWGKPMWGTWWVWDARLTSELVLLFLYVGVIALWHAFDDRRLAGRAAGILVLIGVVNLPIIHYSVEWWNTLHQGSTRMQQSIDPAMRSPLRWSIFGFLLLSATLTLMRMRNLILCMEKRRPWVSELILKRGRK

[2] = target: T2, GST:CcmC(F103C), in GST:CcmCDE(H130A) (E. coli) (UniProt P0ABM1)
T2 sequence: T1 sequence with F103C, C227L

[3] = target: T3, GST:CcmC(V163C), in GST:CcmCDE(H130A) (E. coli) (UniProt P0ABM1)
T3 sequence: T1 sequence with V163C, C227L

[4] = target: T4, GST:CcmC(L145C), in GST:CcmCDE(H130A) (E. coli) (UniProt P0ABM1)
T4 sequence: T1 sequence with L145C, C227L

[5] = target: T5, GST:CcmC(L170C), in GST:CcmCDE(H130A) (E. coli) (UniProt P0ABM1)
T5 sequence: T1 sequence with L170C, C227L

[6] = target: T6, GST:CcmC(H147C), in GST:CcmCDE(H130A) (E. coli) (UniProt P0ABM1)
T6 sequence: T1 sequence with H147C, C227L

[7] = target: T7, GST:CcmC(R152C), in GST:CcmCDE(H130A) (E. coli) (UniProt P0ABM1)
T7 sequence: T1 sequence with R152C, C227L

binding [1]: binds | binding [2]: binds | binding [3]: binds | binding [4]: binds | binding [5]: binds | binding [6]: binds | binding [7]: binds
Substance: CcmE(H130A) (from UniProt P69490)
